Some peptides are written in HELM: one residue between dots, names in brackets for other building blocks, links after the first $.
Test: general procedure: solution-phase peptide synthesis; BOP-Cl, ethyldiisopropylamine
Settings: coupling step
With “Bzl-L-MeLeu-D-Lac-L-MeLeu-D-PheLac-L-MeLeu-D-PheLac-D-OtBu” the step yield was 80%.
Work on “PEPTIDE1{[Bzl].[MePhe].[D-Lac].[MePhe].[D-PheLac].[MePhe].[D-Lac].[MePhe].[D-PheLac].[OtBu]}$$$$V2.0” yielded a step yield of 89%.
Work on “tert-Butyl-N-Benzyl-N-propyl-L-leucyl-D-lactyl-N-^i -propyl-L-leucyl-D-3-phenyllactyl-N-^i propyl-L-leucyl-D-lactyl-N-^i propyl-L-leucyl-D-3-phenyllactate” yielded a step yield of 39%.
For “PEPTIDE1{[Bzl].[MeLeu].[D-Lac].[MeLeu].[D-PheLac].[MeLeu].[D-Lac].[MeLeu].[D-PheLac].[OtBu]}$$$$V2.0”, the step yield was 79%.

Same assay, conditions: late stage modification step
H-L-MeLeu-D-Lac-L-MeLeu-D-PheLac-OtBu gave a step yield of 74%.
Substance Bzl-L-MeLeu-D-Lac-L-MeLeu-D-PheLac-OH has a step yield of 80%.

From patent US5525591A (Bayer Aktiengesellschaft, priority 1993, dated 1996)
